Measured values: paper PMC4588571
No constants are given. Whether binding was seen depends on the method and setting. Sequences can lack the tags named with a protein.

What was measured:
Assay in all cases: two-hybrid; yeast strain Y187; β-galactosidase colony lift filter assay (lacZ reporter); DmVas constructs as GAL4 DNA-binding domain baits (pAS2-1), Osk or Vls as GAL4 activation domain preys (pACT2)
[1] = biological target: T1, DmVas^460–661, GAL4 DNA-binding domain fusion (Drosophila melanogaster) (UniProt P09052)
T1 sequence: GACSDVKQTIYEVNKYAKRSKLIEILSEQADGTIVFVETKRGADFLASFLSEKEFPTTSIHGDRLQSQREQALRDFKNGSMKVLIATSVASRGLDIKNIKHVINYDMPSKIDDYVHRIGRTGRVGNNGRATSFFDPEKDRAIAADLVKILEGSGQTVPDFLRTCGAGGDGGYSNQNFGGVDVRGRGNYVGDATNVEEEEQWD

[2] = biological target: T2, DmVas^470–661, GAL4 DNA-binding domain fusion (Drosophila melanogaster) (UniProt P09052)
T2 sequence: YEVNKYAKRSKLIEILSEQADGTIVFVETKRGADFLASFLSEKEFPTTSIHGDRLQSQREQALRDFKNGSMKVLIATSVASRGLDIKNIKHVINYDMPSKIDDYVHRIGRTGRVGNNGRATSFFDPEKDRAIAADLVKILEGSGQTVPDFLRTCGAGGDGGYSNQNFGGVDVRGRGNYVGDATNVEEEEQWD

[3] = biological target: T3, Drosophila Vasa, full length (1–661), GAL4 DNA-binding domain fusion (Drosophila melanogaster) (UniProt P09052)
T3 sequence: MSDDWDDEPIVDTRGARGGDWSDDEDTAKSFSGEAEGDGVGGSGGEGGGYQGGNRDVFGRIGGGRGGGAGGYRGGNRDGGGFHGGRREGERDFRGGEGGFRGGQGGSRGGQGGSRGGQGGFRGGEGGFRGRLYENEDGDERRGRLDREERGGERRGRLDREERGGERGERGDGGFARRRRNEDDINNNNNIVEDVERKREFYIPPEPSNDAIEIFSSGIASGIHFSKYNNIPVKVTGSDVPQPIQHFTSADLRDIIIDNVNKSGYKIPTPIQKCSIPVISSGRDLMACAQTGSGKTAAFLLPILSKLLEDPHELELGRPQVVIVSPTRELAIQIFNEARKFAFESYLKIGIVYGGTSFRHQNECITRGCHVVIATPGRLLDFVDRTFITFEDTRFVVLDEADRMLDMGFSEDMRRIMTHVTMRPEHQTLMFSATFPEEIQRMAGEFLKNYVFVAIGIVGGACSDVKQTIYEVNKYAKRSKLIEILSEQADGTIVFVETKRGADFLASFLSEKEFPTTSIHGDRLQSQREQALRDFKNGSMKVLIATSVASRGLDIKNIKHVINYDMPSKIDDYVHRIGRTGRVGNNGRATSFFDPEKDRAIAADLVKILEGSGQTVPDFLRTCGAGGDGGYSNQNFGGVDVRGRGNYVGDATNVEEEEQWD

Measured: binding

B1: Valois, full length, GAL4 activation domain fusion (protein, UniProt Q9VIP8 1-367)
chain: MFPQRSSELYRTPVTHQPPPALELAGNLEYPNLNIADLNARLENLSPRLHDCWDSIAINDHNHLALATNRREGRQWWGMLFGYGRDQMHHMSVDSANFKLQAEHTVNIVRYAEDDFLLVALGDTRLQAWSTYSKVRDSQSPYCLFLVGESSAHPTPISQLSVFKADPRTAVSGSADSTLNVWDLSGADMVSTYRSRSSHTDKLTGLATPAASVDKFVTCDRGGCARLWDVRAAAPSSTCLYADASHVLSFTSAAWAAASELQGDNHIYLGDYDGKVHTLDIRVPRKLAETREYFDKGHVAQLLINGPHLAAMSNLPASVKVANVQAGHEFIYTHQDTHSRLTDAVWTDDSTLITIGHGRKMVTHAIK
no binding: all assays above
